Measured values from publication doi:10.1101/2025.05.27.25328314.
No constants are given. Whether binding was seen depends on the method and setting. Binding seen in cells or lysates may run through a third protein. Some results given as binding are weak or reduced against the parent protein; the word gives no strength.

Protein sequences, listed by entry. Tags and fused reporters are not part of them. Residues count along the entry.
UniProt Q9UBS5, residues 20-961: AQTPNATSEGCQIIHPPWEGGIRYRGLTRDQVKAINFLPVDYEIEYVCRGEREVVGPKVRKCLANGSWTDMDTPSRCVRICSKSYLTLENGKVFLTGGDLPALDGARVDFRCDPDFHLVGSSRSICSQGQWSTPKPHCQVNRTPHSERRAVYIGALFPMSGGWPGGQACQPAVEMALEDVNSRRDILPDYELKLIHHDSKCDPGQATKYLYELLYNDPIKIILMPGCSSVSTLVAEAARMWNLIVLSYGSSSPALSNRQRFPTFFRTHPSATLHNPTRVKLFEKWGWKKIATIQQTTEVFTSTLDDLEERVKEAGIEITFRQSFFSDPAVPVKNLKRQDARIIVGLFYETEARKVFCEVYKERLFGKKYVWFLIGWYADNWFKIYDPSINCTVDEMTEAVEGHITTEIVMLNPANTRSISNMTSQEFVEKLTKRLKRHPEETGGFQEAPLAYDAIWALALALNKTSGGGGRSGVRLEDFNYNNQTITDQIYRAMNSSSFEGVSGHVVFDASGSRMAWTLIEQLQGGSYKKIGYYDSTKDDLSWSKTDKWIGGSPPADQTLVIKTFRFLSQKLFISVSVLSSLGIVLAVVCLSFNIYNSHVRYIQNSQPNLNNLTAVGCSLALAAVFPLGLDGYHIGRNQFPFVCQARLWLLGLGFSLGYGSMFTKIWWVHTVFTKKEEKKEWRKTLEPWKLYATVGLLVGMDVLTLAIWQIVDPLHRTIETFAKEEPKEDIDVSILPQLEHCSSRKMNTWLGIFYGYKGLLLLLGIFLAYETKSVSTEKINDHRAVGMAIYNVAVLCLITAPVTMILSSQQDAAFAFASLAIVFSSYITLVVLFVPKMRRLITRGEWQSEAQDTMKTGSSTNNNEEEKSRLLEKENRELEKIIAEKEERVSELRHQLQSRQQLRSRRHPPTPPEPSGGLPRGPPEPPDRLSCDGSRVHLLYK

Target: T1, extracellular Ca2+-sensing receptor (CaSR) (human (endogenous in parathyroid tissue)) (UniProt P41180)
T1 sequence: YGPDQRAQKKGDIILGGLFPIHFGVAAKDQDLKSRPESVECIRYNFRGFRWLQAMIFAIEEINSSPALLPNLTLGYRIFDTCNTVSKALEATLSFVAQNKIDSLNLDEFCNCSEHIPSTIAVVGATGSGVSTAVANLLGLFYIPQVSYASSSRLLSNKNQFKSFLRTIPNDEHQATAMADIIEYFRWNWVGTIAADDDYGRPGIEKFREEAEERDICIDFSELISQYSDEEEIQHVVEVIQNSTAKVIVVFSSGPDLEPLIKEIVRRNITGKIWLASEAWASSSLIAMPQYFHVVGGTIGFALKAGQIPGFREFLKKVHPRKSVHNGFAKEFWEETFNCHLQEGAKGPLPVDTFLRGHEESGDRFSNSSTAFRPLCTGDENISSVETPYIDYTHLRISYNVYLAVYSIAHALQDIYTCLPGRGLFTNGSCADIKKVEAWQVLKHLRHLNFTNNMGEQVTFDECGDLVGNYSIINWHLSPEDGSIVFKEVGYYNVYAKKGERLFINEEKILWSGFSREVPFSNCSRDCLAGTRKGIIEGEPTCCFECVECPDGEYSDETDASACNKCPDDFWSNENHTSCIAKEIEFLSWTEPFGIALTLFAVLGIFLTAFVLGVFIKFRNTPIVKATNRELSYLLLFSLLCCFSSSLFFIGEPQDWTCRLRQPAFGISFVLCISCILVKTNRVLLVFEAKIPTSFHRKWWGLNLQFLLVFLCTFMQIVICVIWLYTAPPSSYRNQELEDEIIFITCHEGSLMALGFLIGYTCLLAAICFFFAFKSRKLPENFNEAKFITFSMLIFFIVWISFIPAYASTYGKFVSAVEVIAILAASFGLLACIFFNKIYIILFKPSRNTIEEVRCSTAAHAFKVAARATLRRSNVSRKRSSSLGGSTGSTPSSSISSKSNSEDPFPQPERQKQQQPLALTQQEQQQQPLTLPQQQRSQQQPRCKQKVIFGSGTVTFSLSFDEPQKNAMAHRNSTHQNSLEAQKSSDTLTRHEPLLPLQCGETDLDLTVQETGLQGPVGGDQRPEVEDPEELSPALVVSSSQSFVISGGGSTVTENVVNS
Test: proximity ligation; deparaffinized sections of human parathyroid glands (normal donors) and parathyroid adenomas (PHPT patients with deficient or replete 25OHD); mouse monoclonal anti-GABAB1R N-terminus and rabbit polyclonal anti-CaSR N-terminus, Duolink in Situ Detection kit, Texas Red probes

binding: binds
Substance: type B γ-aminobutyric acid receptor 1 (GABAB1R) (from UniProt Q9UBS5 20-961)
